What was measured:
Type in all cases: cell-based, human
HepG2 = test: MTT survival assay, hepatic cancer cells Hep G2; conditions: relative to crude extract IC50 18.63 μg/ml
From the text: (§1) Therefore Antroquinonol B and Antroquinonol C can be used in inhibiting cancer cell growth of breast cancer, lung cancer, hepatic cancer, and prostate cancer, which can further be applied in cancer treatment of breast cancer, lung cancer, hepatic cancer, prostate cancer and the like. The details of the examples are described as follows: MTT assay is commonly used to determine cell proliferation, percent of viable cells, and cytotoxicity. 3-[4,5-dimethylthiazol-2-yl]2,5-diphenyltetrazolium bromide (MTT) is a yellow dye, which can be absorbed by the living cells and be reduced to purplish blue formazan crystals by succinate tetrazolium reductase in mitochondria. Formazan formation can therefore be used to assess and determine the survival rate of cells. The NCI anti-cancer drug screen model was employed to test the anti-cancer effect of the Antroquinonol B and Antroquinono C in the present invention. The Antroquinonos isolated from example 1 were added into the culture media of human hepatic-cancer cells, Hep 3B or Hep G2, for tumor cell survival assay. Hepatic-cancer cells Hep 3B (BCRC 60434) and Hep G2 (BCRC 60025), were obtained from the Bioresources Collection and Research Center (BCRC) of the Food Industry Research and Development Institute. […] The plates were read on an ELISA reader at wavelength of 570 nm to determine the survival rates.

MCF-7 = test: MTT survival assay, breast cancer cells MCF-7; conditions: relative to crude extract IC50 11.13 μg/ml
From the text: (§2) Therefore Antroquinonol B and Antroquinonol C can be used in inhibiting cancer cell growth of breast cancer, lung cancer, hepatic cancer, and prostate cancer, which can further be applied in cancer treatment of breast cancer, lung cancer, hepatic cancer, prostate cancer and the like. The details of the examples are described as follows: The NCI anti-cancer drug screen model was adopted to test the anti-cancer effect of the isolated compounds from example 1 in the present invention. The isolated Antroquinonol B and Antroquinonol C from example 1 were added into the culture media of human breast-cancer cells, MCF-7 or MDA-MB-231, to test for tumor cell survival. This survival assay was carried out with the widely known MTT (3-[4,5-dimethylthiazol-2-yl]2,5-diphenyltetrazolium bromide) assay. MCF-7 cell line is originated from primary breast cancer cells (early stage), sensitive to estrogen and therefore is estrogen-dependent, while MDA-MB-231 is insensitive to estrogen and therefore is estrogen-independent, which is a difficult tumor with a low survival rate. MTT assay is commonly used to determine cell proliferation, percent of viable cells, and cytotoxicity. […] The plates were read on an ELISA reader at wavelength of 570 nm to determine the survival rates.

A549 = test: MTT survival assay, lung cancer cells A549; conditions: relative to crude extract IC50 13.21 μg/ml
From the text: Therefore Antroquinonol B and Antroquinonol C can be used in inhibiting cancer cell growth of breast cancer, lung cancer, hepatic cancer, and prostate cancer, which can further be applied in cancer treatment of breast cancer, lung cancer, hepatic cancer, prostate cancer and the like. The details of the examples are described as follows: MTT assay is commonly used to determine cell proliferation, percent of viable cells, and cytotoxicity. 3-[4,5-dimethylthiazol-2-yl]2,5-diphenyltetrazolium bromide (MTT) is a yellow dye, which can be absorbed by the living cells and be reduced to purplish blue formazan crystals by succinate tetrazolium reductase in mitochondria. Formazan formation can therefore be used to assess and determine the survival rate of cells. The NCI anti-cancer drug screen model was also employed to test the anti-lung cancer effect of the Antroquinonol B and Antroquinonol C in the present invention. The Antroquinonols isolated from example 1 were added into the culture media of human lung cancer cell A549 with the abovementioned MTT assay to analyze lung cancer cell survival rates. Human lung cancer cell A549 was obtained from the Bioresources Collection and Research Center (BCRC) of the Food Industry Research and Development Institute with an accession number of BCRC 60074. […] The plates were read on an ELISA reader at wavelength of 570 nm to determine the survival rates.

LNCaP = test: MTT survival assay, prostate cancer cells LNCaP; conditions: relative to control group IC50 11.49 μg/ml
From the text: (§3) Therefore Antroquinonol B and Antroquinonol C can be used in inhibiting cancer cell growth of breast cancer, lung cancer, hepatic cancer, and prostate cancer, which can further be applied in cancer treatment of breast cancer, lung cancer, hepatic cancer, prostate cancer and the like. The details of the examples are described as follows:
(§4) MTT assay is commonly used to determine cell proliferation, percent of viable cells, and cytotoxicity. 3-[4,5-dimethylthiazol-2-yl]2,5-diphenyltetrazolium bromide (MTT) is a yellow dye, which can be absorbed by the living cells and be reduced to purplish blue formazan crystals by succinate tetrazolium reductase in mitochondria. Formazan formation can therefore be used to assess and determine the survival rate of cells.
(§5) The NCI anti-cancer drug screen model was also employed to test the anti-cancer effect of the Antroquinonols in the present invention. Antroquinonol B and Antroquinonol C isolated from example 2 were added into the culture media of human prostate cancer cells, LNCaP or DU-145, and prostate cancer cell survival rates were analyzed with the abovementioned MTT assay. […]
(§6) The human prostate-cancer cells, LNCaP and DU-145, were cultivated in media containing fetal calf serum for 24 hours. […] The plates were read on an ELISA reader at wavelength of 570 nm to determine the survival rates.

DU-145 = test: MTT survival assay, prostate cancer cells DU-145; conditions: relative to control group IC50 41.39 μg/ml
From the text: as §3, §4, §5, §6

Hep3B = test: MTT survival assay, hepatic cancer cells Hep 3B; conditions: relative to crude extract IC50 5.10
From the text: as §1

MDA-MB-231 = test: MTT survival assay, breast cancer cells MDA-MB-231; conditions: relative to crude extract IC50 25.81 μg/ml
From the text: as §2

| SMILES | IC50 lower than that of crude extracts from A. camphorata, Hep G2 (HepG2) | IC50 lower than that of crude extracts from A. camphorata, MCF-7 (MCF-7) | IC50 lower than that of crude extracts from A. camphorata, A549 (A549) | IC50 lower than the IC50 value of the control group, LNCaP (LNCaP) | IC50 lower than the IC50 value of the control group, DU-145 (DU-145) | IC50 lower than that of crude extracts from A. camphorata, Hep 3B (Hep3B) | IC50 lower than that of crude extracts from A. camphorata, MDA-MB-231 (MDA-MB-231) |
| --- | --- | --- | --- | --- | --- | --- | --- |
| COC1=C(OC)[C@H](O)[C@H](C/C=C(\C)CC/C=C(/C)C/C=C/C(C)(C)O)[C@@H](C)C1=O [Antroquinonol B] | 82.18% | 82.56% | 9.92% | 50.65% | 75.55% | 76.27% | 66.21% |
| COC1=C(OC)[C@H](O)[C@H](C/C=C(\C)CC/C=C(/C)C/C=C/C(C)(C)OC)[C@@H](C)C1=O [Antroquinonol C] | 72.52% | 89.49% | 37.85% | 24.11% | 70.5% | 74.12% | 15.15% |

Source: patent US7385088B1, “Compounds from Antrodia camphorata” (Golden Biotechnology Corporation, priority 2007, dated 2008)
